Where a name gives a salt, the structure may show the parent alone. Read-outs that look alike come from different tables or passages of the source. At least one read-out could not be matched to a standard name with certainty. Where a SMILES comes first, the peptide text is derived from it.
Legend:
[1] = system: mitochondrial membrane potential; assay type: cell-based, mouse
reactive oxygen species = assay type: cell-based, mouse
OXPHOS gene expression = assay type: cell-based, mouse
nuOXPHOS transcripts = assay type: cell-based, mouse
mtOXPHOS transcripts = assay type: cell-based, mouse
[2] = system: cellular dehydrogenase activity
[3] = composite Z-score vs mock-treated (DMSO) wells, concentration of each compound in μM
[4] = normalized score (composite Z-score vs DMSO mock-treated wells), compound concentration (μM)

Structure (SMILES)	ROS (reactive oxygen species)	GE-HTS (OXPHOS gene expression)	nucOX (nuOXPHOS transcripts)	mitoOX (mtOXPHOS transcripts)	Viability (C2C12 myotubes)	MTT [2]	ΔΨm [1, 3]	ROS (reactive oxygen species; [3])	GE-HTS (OXPHOS gene expression; [3])	nucOX (nuOXPHOS transcripts; [3])	mitoOX (mtOXPHOS transcripts; [3])	Viability (C2C12 myotubes; [3])	MTT [2, 3]	other results
Cc1cn([C@H]2C[C@H](N=[N+]=[N-])[C@@H](CO)O2)c(=O)[nH]c1=O [zidovudine]	0.693	0.221	0.245	0.133	−0.277	−1.301	–	–	–	–	–	–	–	ΔΨm (composite Z-score vs DMSO mock-treated wells) [1]: −0.815; ROS (composite Z-score vs DMSO mock-treated wells) (reactive oxygen species): 0.567; GE-HTS (composite Z-score, OXPHOS gene expression) (OXPHOS gene expression): −0.345; mitoOX (composite Z-score, mtDNA-encoded OXPHOS expression) (mtOXPHOS transcripts): −0.667; Viability (composite Z-score vs DMSO mock-treated wells) (C2C12 myotubes): −1.328; MTT (composite Z-score vs DMSO mock-treated wells) [2]: −1.105
COc1cc(/C=C/C(=O)O)ccc1O [ferulic acid]	–	–	–	–	–	–	–	–	–	–	–	–	–	ΔΨm (composite Z-score) [1]: −0.844; ROS (composite Z-score) (reactive oxygen species): −0.272; GE-HTS (composite Z-score) (OXPHOS gene expression): −0.380; nucOX (composite Z-score) (nuOXPHOS transcripts): −0.432; mitoOX (composite Z-score) (mtOXPHOS transcripts): −0.191; Viability (composite Z-score) (C2C12 myotubes): −1.181; MTT (composite Z-score) [2]: −1.254
Cc1cc(NC(=O)C2=C(O)c3ccccc3S(=O)(=O)N2C)no1 [isoxicam]	1.145	−0.744	−0.885	−0.352	−0.403	−1.505	–	–	–	–	–	–	–	ΔΨm [1]: −0.548
C[C@]12C=CC(=O)C=C1CC[C@H]1[C@@H]3C[C@@H](O)[C@](O)(C(=O)CO)[C@@]3(C)C[C@H](O)[C@@]12F [triamcinolone]	0.391	0.019	−0.199	0.424	−1.198	0.109	–	–	–	–	–	–	–	ΔΨm (composite Z-score vs DMSO) [1]: −0.458; ROS (composite Z-score vs DMSO) (reactive oxygen species): 0.484; GE-HTS (composite Z-score vs DMSO) (OXPHOS gene expression): 0.217; nucOX (composite Z-score vs DMSO) (nuOXPHOS transcripts): 0.162; mitoOX (composite Z-score vs DMSO) (mtOXPHOS transcripts): 0.261; Viability (composite Z-score vs DMSO) (C2C12 myotubes): −1.408; MTT (composite Z-score vs DMSO) [2]: −1.074
NCCCC[C@H](N)C(=O)N[C@@H](Cc1ccccc1)C(=O)N[C@@H](Cc1ccc(O)cc1)C(=O)O [lysylphenylalanyltyrosine] (H-Lys-Phe-Tyr-OH)	–	–	–	–	–	–	−0.825	0.225	−0.424	−0.208	−0.783	−0.701	−1.300	–
COC(=O)C1=C(C)NC(C)=C(C(=O)OC(C)C)C1c1cccc2nonc12 (stereo not shown) [isradipine]	–	–	–	–	–	–	0.349	0.522	0.070	−0.063	0.317	−0.674	−0.635	–
C[C@H]1CCCC(=O)CCC/C=C/c2cc(O)cc(O)c2C(=O)O1 [zearalenone]	–	–	–	–	–	–	−0.194	2.122	−0.979	−0.810	−1.159	0.576	−0.900	–
CC(=O)N[C@@H](CC(=O)O)C(=O)N[C@@H](CCC(=O)O)C(=O)O [N-acetylaspartylglutamic acid] (Ac-Asp-Glu-OH)	–	–	–	–	–	–	−0.393	−0.197	−0.126	−0.008	−0.342	0.010	0.280	–
CCOC(=O)Oc1c(OC)cc(C(=O)O[C@@H]2C[C@@H]3CN4CCc5c([nH]c6cc(OC)ccc56)[C@H]4C[C@@H]3[C@H](C(=O)OC)[C@H]2OC)cc1OC [syrosingopine]	–	–	–	–	–	–	–	–	–	–	–	–	–	ΔΨm [1, 4]: 0.479; ROS (reactive oxygen species; [4]): 0.586; GE-HTS (OXPHOS gene expression; [4]): −0.123; nucOX (nuOXPHOS transcripts; [4]): −0.010; mitoOX (mtOXPHOS transcripts; [4]): −0.336; Viability (C2C12 myotubes; [4]): −0.660; MTT [2, 4]: −0.077
NS(=O)(=O)c1cc2c(cc1Cl)N=CNS2(=O)=O [chlorothiazide]	0.110	−0.059	0.057	−0.267	−0.647	−0.649	–	–	–	–	–	–	–	ΔΨm [1]: −0.130
CC[C@H]1OC(=O)[C@H](C)[C@@H](O[C@H]2C[C@@](C)(OC)[C@@H](O)[C@H](C)O2)[C@H](C)[C@@H](O[C@@H]2O[C@H](C)C[C@H](N(C)C)[C@H]2O)[C@](C)(O)C[C@@H](C)[C@@H]2N[C@@H](COCCOC)O[C@H]([C@H]2C)[C@]1(C)O [dirithromycin]	–	–	–	–	–	–	−0.880	0.463	−0.324	−0.298	−0.311	−1.308	−0.838	–
COc1ccccc1N1CCN(CC(O)COc2cccc3ccccc23)CC1 (stereo not shown) [naftopidil]	–	–	–	–	–	–	0.133	1.396	0.786	0.810	0.572	0.654	−0.214	–
CNCC(O)c1ccc(OC(=O)C(C)(C)C)c(OC(=O)C(C)(C)C)c1 (stereo not shown) [dipivefrin]	–	–	–	–	–	–	−0.606	0.841	0.218	0.096	0.416	0.377	−0.661	–
C[C@@H]1CC[C@H]2C(C)(C)[C@H]3C[C@@]12CC[C@@]3(C)O [cedrol]	0.096	−0.319	−0.249	−0.351	−0.226	−0.896	–	–	–	–	–	–	–	ΔΨm [1]: 0.175
CC(=O)Nc1ccccc1 [acetanilide]	–	–	–	–	–	–	–	–	–	–	–	–	–	ΔΨm (composite Z-score vs DMSO) [1]: −1.104; ROS (composite Z-score vs DMSO) (reactive oxygen species): 1.145; GE-HTS (composite Z-score vs DMSO) (OXPHOS gene expression): 0.043; nucOX (composite Z-score vs DMSO) (nuOXPHOS transcripts): 0.206; mitoOX (composite Z-score vs DMSO) (mtOXPHOS transcripts): −0.295; Viability (composite Z-score vs DMSO) (C2C12 myotubes): −1.150; MTT (composite Z-score vs DMSO) [2]: −1.213
CCCc1nc2c(C)cc(-c3nc4ccccc4n3C)cc2n1Cc1ccc(-c2ccccc2C(=O)O)cc1 [telmisartan]	–	–	–	–	–	–	−0.028	2.637	−0.648	−0.802	−0.253	2.326	−0.800	–
CC[C@H]1OC(=O)C[C@@H](O)[C@H](C)[C@@H](O[C@@H]2O[C@H](C)[C@@H](O[C@H]3C[C@@](C)(O)[C@@H](O)[C@H](C)O3)[C@H](N(C)C)[C@H]2O)[C@@H](CC=O)C[C@@H](C)C(=O)/C=C/C(C)=C/[C@@H]1CO[C@@H]1O[C@H](C)[C@@H](O)[C@@H](OC)[C@H]1OC [tylosin]	–	–	–	–	–	–	−0.550	1.188	−0.376	−0.466	−0.179	−0.554	−1.239	–
CN(C)CCOC(=O)C(c1ccccc1)C1(O)CCCC1 (stereo not shown) [cyclopentolate]	0.345	0.035	0.091	−0.093	−0.114	−0.400	–	–	–	–	–	–	–	ΔΨm [1]: −0.335
CC(C(=O)O)c1ccc(C(=O)c2ccccc2)s1 (stereo not shown) [tiaprofenic acid]	–	–	–	–	–	–	–	–	–	–	–	–	–	ΔΨm [1, 4]: −1.012; ROS (reactive oxygen species; [4]): 1.746; GE-HTS (OXPHOS gene expression; [4]): 0.111; nucOX (nuOXPHOS transcripts; [4]): 0.379; mitoOX (mtOXPHOS transcripts; [4]): −0.452; Viability (C2C12 myotubes; [4]): −0.148; MTT [2, 4]: −1.167
CN(C)CCCSC(=N)N [dimaprit]	–	–	–	–	–	–	–	–	–	–	–	–	–	ΔΨm (composite Z-score) [1]: 2.136; ROS (composite Z-score) (reactive oxygen species): 0.016; GE-HTS (composite Z-score) (OXPHOS gene expression): −0.311; nucOX (composite Z-score) (nuOXPHOS transcripts): −0.403; mitoOX (composite Z-score) (mtOXPHOS transcripts): −0.076; Viability (composite Z-score) (C2C12 myotubes): 0.169; MTT (composite Z-score) [2]: −0.416
CC(=O)N1CCN(c2ccc(OCC3COC(Cn4ccnc4)(c4ccc(Cl)cc4Cl)O3)cc2)CC1 (stereo not shown) [ketoconazole]	1.572	0.527	0.701	0.073	−0.490	−0.448	–	–	–	–	–	–	–	ΔΨm (composite Z-score vs DMSO mock-treated wells) [1]: −0.327; ROS (composite Z-score vs DMSO mock-treated wells) (reactive oxygen species): 1.704; GE-HTS (composite Z-score, OXPHOS gene expression) (OXPHOS gene expression): −0.113; nucOX (composite Z-score, nuclear-encoded OXPHOS expression) (nuOXPHOS transcripts): −0.313; mitoOX (composite Z-score, mtDNA-encoded OXPHOS expression) (mtOXPHOS transcripts): 0.253; Viability (composite Z-score vs DMSO mock-treated wells) (C2C12 myotubes): 0.144; MTT (composite Z-score vs DMSO mock-treated wells) [2]: −0.254
Cc1onc(-c2c(Cl)cccc2Cl)c1C(=O)N[C@@H]1C(=O)N2[C@@H]1SC(C)(C)[C@@H]2C(=O)O [dicloxacillin sodium salt]	0.390	−0.206	0.009	−0.612	−0.036	−0.883	–	–	–	–	–	–	–	ΔΨm [1]: −0.055
COc1cc2nc(N3CCN(C(=O)C4CCCO4)CC3)nc(N)c2cc1OC (stereo not shown) [terazosin]	–	–	–	–	–	–	–	–	–	–	–	–	–	ΔΨm (composite Z-score vs DMSO) [1]: −0.753; ROS (composite Z-score vs DMSO) (reactive oxygen species): 0.330; GE-HTS (composite Z-score vs DMSO) (OXPHOS gene expression): −0.111; nucOX (composite Z-score vs DMSO) (nuOXPHOS transcripts): −0.106; mitoOX (composite Z-score vs DMSO) (mtOXPHOS transcripts): −0.115; Viability (composite Z-score vs DMSO) (C2C12 myotubes): −0.367; MTT (composite Z-score vs DMSO) [2]: −0.654
CN1CCC(=C2c3ccccc3C=Cc3ccccc32)CC1 [cyproheptadine]	–	–	–	–	–	–	–	–	–	–	–	–	–	ΔΨm (composite Z-score) [1]: 0.430; ROS (composite Z-score) (reactive oxygen species): 0.366; GE-HTS (composite Z-score) (OXPHOS gene expression): −1.166; nucOX (composite Z-score) (nuOXPHOS transcripts): −0.919; mitoOX (composite Z-score) (mtOXPHOS transcripts): −1.483; Viability (composite Z-score) (C2C12 myotubes): −0.558; MTT (composite Z-score) [2]: −1.321
c1ccc(-c2ccc(C(c3ccccc3)n3ccnc3)cc2)cc1 (stereo not shown) [bifonazole]	0.552	−0.276	−0.492	0.173	−0.063	−1.879	–	–	–	–	–	–	–	ΔΨm [1]: −0.622
CCCC(=O)Nc1ccc(OCC(O)CNC(C)C)c(C(C)=O)c1 (stereo not shown) [acebutolol]	1.266	−0.311	−0.431	−0.037	−0.383	−0.837	–	–	–	–	–	–	–	ΔΨm [1]: −1.006

— patent US20090143279A1 (priority 2007, published 2009)
